Results on 1 substance are retold here after paper PMC9253104.

By UniProt entry, the sequences of proteins in these tests, tags left out.
UniProt Q00944: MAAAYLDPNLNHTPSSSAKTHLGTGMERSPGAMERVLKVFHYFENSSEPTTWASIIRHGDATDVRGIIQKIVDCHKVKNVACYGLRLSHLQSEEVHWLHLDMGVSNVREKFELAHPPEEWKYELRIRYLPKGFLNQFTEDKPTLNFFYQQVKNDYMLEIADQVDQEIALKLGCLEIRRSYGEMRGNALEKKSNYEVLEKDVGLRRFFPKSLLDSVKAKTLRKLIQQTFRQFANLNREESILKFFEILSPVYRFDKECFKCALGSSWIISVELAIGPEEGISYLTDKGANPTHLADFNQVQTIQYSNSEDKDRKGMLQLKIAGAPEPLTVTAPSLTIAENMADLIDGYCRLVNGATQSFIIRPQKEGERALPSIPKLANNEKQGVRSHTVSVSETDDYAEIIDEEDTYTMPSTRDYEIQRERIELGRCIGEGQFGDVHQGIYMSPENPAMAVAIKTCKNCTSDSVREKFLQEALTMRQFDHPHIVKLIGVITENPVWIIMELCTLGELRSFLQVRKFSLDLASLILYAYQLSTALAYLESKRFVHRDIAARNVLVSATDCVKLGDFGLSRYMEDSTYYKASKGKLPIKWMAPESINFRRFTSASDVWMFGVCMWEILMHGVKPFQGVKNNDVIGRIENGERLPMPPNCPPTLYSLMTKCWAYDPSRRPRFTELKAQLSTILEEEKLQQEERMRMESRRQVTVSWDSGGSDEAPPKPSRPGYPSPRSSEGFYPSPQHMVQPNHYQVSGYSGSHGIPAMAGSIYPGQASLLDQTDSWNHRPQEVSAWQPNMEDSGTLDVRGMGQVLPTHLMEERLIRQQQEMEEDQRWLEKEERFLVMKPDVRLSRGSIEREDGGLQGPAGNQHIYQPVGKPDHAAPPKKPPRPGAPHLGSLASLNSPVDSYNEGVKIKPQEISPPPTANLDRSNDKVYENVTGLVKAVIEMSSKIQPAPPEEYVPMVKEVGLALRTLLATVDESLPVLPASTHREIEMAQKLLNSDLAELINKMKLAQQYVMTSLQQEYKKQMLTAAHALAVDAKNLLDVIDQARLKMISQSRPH

The target of test [1] is T1, GST-Simiate (UniProt Q80ZQ9).
T1 sequence: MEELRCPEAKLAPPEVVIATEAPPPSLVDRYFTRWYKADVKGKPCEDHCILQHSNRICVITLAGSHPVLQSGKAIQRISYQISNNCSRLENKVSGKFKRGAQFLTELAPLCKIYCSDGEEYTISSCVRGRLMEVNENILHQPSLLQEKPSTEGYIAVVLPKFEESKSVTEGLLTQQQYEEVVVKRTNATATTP
The experiment in a line: pull-down; 50 ug GST-Simiate or GST on Glutathione sepharose beads, incubated over night at 4 °C with the cytosolic fraction of HEK293 cells expressing GFP proteins; Ripa-buffer; three washes; Western blot; only the target purified.

In test [2] the target is T1, GST-Simiate. The experiment in a line: pull-down; GST-Simiate or GST on Glutathione sepharose beads with nuclear extracts of HEK293 cells expressing GFP proteins (sucrose gradient centrifugation and ultra sound); Ripa-buffer; Western blot; only the target purified. In general terms: In western blotting, separated proteins are transferred to a membrane and probed.

Results are given in words; binding and its absence hold for the method and conditions named. In cells and extracts the contact can be indirect. Some binding calls cover weakened binding; strength is not graded here. Where a sequence is shown, tags or fusion partners need not be part of it.

Turning to GFP-FAK1 (from UniProt Q00944 1-1053), the binding entry with GST-Simiate [1] and with GST-Simiate [2] was “binds” throughout.
